Reference: PubChem BioAssay AID924 (National Center for Advancing Translational Sciences (NCATS), 2007)
Shown are results outside the selection of hits, which stands elsewhere. Records with an inconclusive call do not appear. The source made the active and inactive calls. Calls follow the shape of the dose curve; as a rule, active = well fitted cell-killing curve with a large enough effect; inconclusive = small, poorly fitted or top-dose-only effect; inactive = no such curve, though single readings can be large or run the other way.

Assay: qHTS Screen for Compounds that Selectively Target Cancer Cells with p53 Mutations: Cytotoxicity of p53ts Cells at the Permissive Temperature;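 also: 0% = DMSO and -100% = full killing by reference compound; nearly all actives have a fitted effect of over 55% in size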
Details: H1299-p53A138V at 32C, ATP luminescence viability, 24 h
Description: NIH Chemical Genomics Center [NCGC] NIH Molecular Libraries Screening Centers Network [MLSCN] MLSCN Grant: 1 X01 MH079844-01 Assay Submitter (PI): Dr. SUN, YI, University of Michigan NCGC Assay Overview: Synthetic Lethal Screen for Compounds to Kill Cancer Cells with p53 Mutation. Tumor suppressor gene p53 serves as a major cellular barrier against tumorigenesis. […] The goal of this screening is to identify small molecule probes that selectively kill cancer cells with mutations in p53. This screening was carried out using two lines of H1299 lung cancer cells. The H1299-p53 A138V line express a temperature sensitive p53 mutant (p53ts) in which the mutant p53 protein (A138V) is in the mutant confirmation when grown at 39C (the nonpermissive temperature) and in the wild type conformation when grown at 32C (the permissive temperature). A H1299-neo line (p53 null) grown at both 39C and 32C were used as counter-screens to filter out false positive associated with temperature shifting. The small molecular compounds that selectively target mutant p53-containing cancer cells were selected as candidate probes for further study. A cytotoxicity assay based on the measurement of ATP contents in cells was used in this screen. Concentration-responses of all the compounds in the library collection were determined in qHTS using the cell lines and temperature conditions as above.
NCGC Assay Protocol Summary: Both the H1299-p53A138V and H1299-neo cell lines were provided by Dr.Yi Sun, a PI at the University Michigan. The cells were maintained and cultured at 37C. The resuspended frozen cells were used to plate the cells in the 1536-well assay plates at a density of 600 cells per well in 5 ul medium. The assay plates with the cells were incubated at 37C for 16 to 30 hours before the experiments. […] AC50 values were determined from concentration-response data modeled with the standard Hill equation. […] Detection; Luminescence; Viewlux plate reader Keywords: p53, synthetic lethal, cancer, cell viability, cytotoxicity, H1299 cell line, luminescence, MLSMR, MLSCN, NIH Roadmap, qHTS, NCGC

Measured: activity change, negative = cytotoxicity

COC(=O)C1=C(C)NC(C)=C(C(=O)OC)C1c1ccccc1[N+](=O)[O-]
inactive: at 1.84 µM (top of the series) 5.37% | at 20.6 µM (top of the series) 2.47% | at 46.1 µM (top of the series) 45.2%
